PubChem BioAssay AID743458, Peter MacCallum Cancer Centre, 2014

Aim: 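Retest earlier hits with independent siRNAs per gene for restoring vorinostat sensitivity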 (follow-up of hits)
Cell system: human HCT116-VR colon cancer cells made resistant to vorinostat
Reagent: single siRNA or pool against human genes, 25 nM per single siRNA
Duration: about 72 h after transfection, including 24 h of drug
Treatment: vorinostat, 2.5 µM final, for 24 h
Read-out: 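Live-cell fluorescent viability and luminescent caspase 3/7 activity after vorinostat treatment, background subtracted, mean of duplicate plates, as fold change over mock-transfected wells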
Reading the numbers: viability relative to mock: higher = more living cells than mock; caspase activity relative to mock: higher = more apoptosis than mock
Active means: 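Active means a reduced-viability or caspase-activation class, anything else inactive; classes could only be given to wells that looked healthy when left untreated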
Here is a random part of about 1,800 deposited reagents. Over the whole deposit, 732 (41%) got an active call. 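Calls are per siRNA reagent; a gene was deemed confirmed only if most of its four siRNAs scored.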 Unmarked entries are inactive. The numbers tell different reagents against one gene apart. Reagent sequences are not shown.

For RASAL2 #1, the values are viability relative to mock 0.4 (active); caspase activity relative to mock 5.31; viability hit class reduced viability; caspase hit class caspase activation.
For RASAL2 #2, the entry reads viability relative to mock 0.6; caspase activity relative to mock 1.39; viability hit class no change; caspase hit class no change.
Silencing of RASAL2 #3 gave: viability relative to mock 1.16; caspase activity relative to mock 1.29; viability hit class no change; caspase hit class no change.
Silencing of RASAL2 #4 gave: viability relative to mock 0.65; caspase activity relative to mock 1.86; viability hit class no change; caspase hit class no change.

Targets listed so far whose gene name starts with R or r (4):
RASAL2 #1 | viability relative to mock: 0.4 (active); caspase activity relative to mock: 5.31; viability hit class: reduced viability; caspase hit class: caspase activation
RASAL2 #2 | viability relative to mock: 0.6; caspase activity relative to mock: 1.39; viability hit class: no change; caspase hit class: no change
RASAL2 #3 | viability relative to mock: 1.16; caspase activity relative to mock: 1.29; viability hit class: no change; caspase hit class: no change
RASAL2 #4 | viability relative to mock: 0.65; caspase activity relative to mock: 1.86; viability hit class: no change; caspase hit class: no change

The listing continues:
C22orf15 #1 scored viability relative to mock 0.69; caspase activity relative to mock 2.46; viability hit class no change; caspase hit class no change.
After knock-down of C22orf15 #2 the results were viability relative to mock 0.73; caspase activity relative to mock 2.32; viability hit class no change; caspase hit class no change.
C22orf15 #3 scored viability relative to mock 0.65 (active); caspase activity relative to mock 3.37; viability hit class no change; caspase hit class caspase activation.
With knock-down of C22orf15 #4, the screen gave viability relative to mock 0.8; caspase activity relative to mock 1.4; viability hit class no change; caspase hit class no change.
Silencing of RPS10 #1 came out at: viability relative to mock 0.47 (active); caspase activity relative to mock 1.16; viability hit class reduced viability; caspase hit class no change.
RPS10 #2 gave viability relative to mock 0.36 (active); caspase activity relative to mock 1.01; viability hit class reduced viability; caspase hit class no change.
Silencing of RPS10 #3 came out at: viability relative to mock 0.98; caspase activity relative to mock 1.12; viability hit class no change; caspase hit class no change.
RPS10 #4 scored viability relative to mock 0.26 (active); caspase activity relative to mock 1.38; viability hit class reduced viability; caspase hit class no change.
